This note sets out measurements from PMC10768284.

The chains behind the UniProt entries cited, without tags or fusion partners.
UniProt O15169: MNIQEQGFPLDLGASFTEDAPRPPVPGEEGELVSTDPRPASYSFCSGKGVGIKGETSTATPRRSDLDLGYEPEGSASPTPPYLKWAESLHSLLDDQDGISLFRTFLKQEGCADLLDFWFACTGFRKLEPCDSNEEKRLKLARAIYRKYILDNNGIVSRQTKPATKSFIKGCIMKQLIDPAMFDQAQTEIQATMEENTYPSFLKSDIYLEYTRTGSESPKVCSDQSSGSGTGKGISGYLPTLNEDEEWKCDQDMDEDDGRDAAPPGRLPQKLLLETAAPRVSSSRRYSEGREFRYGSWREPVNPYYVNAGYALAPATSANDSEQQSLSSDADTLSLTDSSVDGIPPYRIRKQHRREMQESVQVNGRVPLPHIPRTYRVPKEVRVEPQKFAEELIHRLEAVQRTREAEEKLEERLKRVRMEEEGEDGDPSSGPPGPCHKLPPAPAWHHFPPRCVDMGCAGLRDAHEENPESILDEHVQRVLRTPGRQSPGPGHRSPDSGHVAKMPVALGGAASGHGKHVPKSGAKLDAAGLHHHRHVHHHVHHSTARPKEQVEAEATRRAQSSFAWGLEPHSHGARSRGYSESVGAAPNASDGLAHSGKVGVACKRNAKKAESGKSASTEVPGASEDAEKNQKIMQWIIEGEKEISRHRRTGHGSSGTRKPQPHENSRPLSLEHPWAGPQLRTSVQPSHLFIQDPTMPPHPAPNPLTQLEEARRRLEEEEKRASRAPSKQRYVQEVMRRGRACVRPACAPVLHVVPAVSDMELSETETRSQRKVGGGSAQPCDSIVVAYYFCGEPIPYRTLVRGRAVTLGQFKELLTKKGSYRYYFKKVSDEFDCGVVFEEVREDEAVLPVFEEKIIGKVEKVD
UniProt P49674: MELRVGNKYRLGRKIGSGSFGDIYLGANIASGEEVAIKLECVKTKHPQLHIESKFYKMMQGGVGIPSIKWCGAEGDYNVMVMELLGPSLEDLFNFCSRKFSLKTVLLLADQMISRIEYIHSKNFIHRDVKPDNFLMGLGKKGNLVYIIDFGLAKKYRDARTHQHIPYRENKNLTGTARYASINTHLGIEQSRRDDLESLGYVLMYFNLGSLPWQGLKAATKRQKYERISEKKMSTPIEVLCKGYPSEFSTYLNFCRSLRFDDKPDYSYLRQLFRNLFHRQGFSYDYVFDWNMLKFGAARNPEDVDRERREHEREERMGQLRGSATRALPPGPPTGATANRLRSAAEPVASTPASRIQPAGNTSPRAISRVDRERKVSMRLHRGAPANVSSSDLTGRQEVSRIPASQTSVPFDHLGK

In the test the target is Axin1 (human (endogenous in HEK293T)) (UniProt O15169). The test can be described thus: co-IP; endogenous proteins in HEK293T lysate (RIPA lysis mixture with protease and phosphatase inhibitors); supernatant incubated overnight at 4 °C with specific primary antibody or control IgG, protein A/G magnetic beads 3 h, washed 3 times with RIPA; cells treated with 0.2 μg/mL rRSPO1 for 12 h, alone or with 0.2 μM SR3029; co-precipitated CK1ε and LRP6 normalized to Axin1.

Results are given in words; binding and its absence hold for the method and conditions named. Binding seen in cells or lysates may run through a third protein. Some entries that bind do so weakly or less than the wild type.

For “Casein kinase 1ε (CK1ε) (from UniProt P49674 1-416) (enzyme)”, the binding result is on record as “binds”.
